Data reported in patent publication US20120202847A1, “Novel Tetrahydroisoquinoline Compounds” (priority 2009, published 2012).
Some entries share one result that the patent states for a list of compounds.

These molecules were tested against T1, DGAT1 (Mus musculus, UniProt Q9Z2A7) (assay: Triglyceride absorption suppression after fat loading (in vivo DGAT1 inhibitory effect)). Conditions: male C57BL/6N mice, oral, dose of 10 mg/kg or lower; plasma triglyceride 1 to 4 hours after fat emulsion.
T1 construct: from tissue; host or cells: live C57BL/6N mice (small intestine)
T1 sequence (Q9Z2A7 1-498): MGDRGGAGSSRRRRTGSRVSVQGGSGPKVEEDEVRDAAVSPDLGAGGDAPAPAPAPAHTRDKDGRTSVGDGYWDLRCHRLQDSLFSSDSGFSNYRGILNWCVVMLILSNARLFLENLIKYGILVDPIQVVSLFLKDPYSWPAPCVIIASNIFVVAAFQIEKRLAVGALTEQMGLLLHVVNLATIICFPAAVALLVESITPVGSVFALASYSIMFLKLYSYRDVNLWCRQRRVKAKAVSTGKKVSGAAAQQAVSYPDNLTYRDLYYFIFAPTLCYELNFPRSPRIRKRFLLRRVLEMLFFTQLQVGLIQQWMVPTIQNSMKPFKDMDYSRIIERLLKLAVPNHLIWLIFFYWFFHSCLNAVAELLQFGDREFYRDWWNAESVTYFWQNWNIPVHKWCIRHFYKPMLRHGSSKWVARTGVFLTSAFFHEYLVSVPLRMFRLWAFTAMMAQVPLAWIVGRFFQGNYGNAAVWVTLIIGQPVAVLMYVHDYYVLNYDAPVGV

Triglyceride absorption suppressive activity, ≥ 60%:
O=C(O)C[C@H]1CC[C@H](OC(=O)N2CCc3cc(NC(=O)Nc4ccc(F)cc4F)ccc3C2)CC1 [Example 1, trans-6-[3-(2,4-difluoro-phenyl)-ureido]-3,4-dihydro-1H-isoquinoline-2-carboxylic acid 4-carboxymethyl-cyclohexyl ester]
O=C(O)C[C@H]1CC[C@H](OC(=O)N2CCc3cc(NC(=O)Nc4ccccc4Cl)ccc3C2)CC1 [Example 2, trans-6-[3-(2-chloro-phenyl)-ureido]-3,4-dihydro-1H-isoquinoline-2-carboxylic acid 4-carboxymethyl-cyclohexyl ester]
O=C(O)C[C@H]1CC[C@H](OC(=O)N2CCc3cc(NC(=O)Nc4cccc(F)c4F)ccc3C2)CC1 [Example 3, trans-6-[3-(2,3-difluoro-phenyl)-ureido]-3,4-dihydro-1H-isoquinoline-2-carboxylic acid 4-carboxymethyl-cyclohexyl ester]
O=C(O)C[C@H]1CC[C@H](OC(=O)N2CCc3cc(NC(=O)Nc4cc(F)ccc4F)ccc3C2)CC1 [Example 4, trans-6-[3-(2,5-difluoro-phenyl)-ureido]-3,4-dihydro-1H-isoquinoline-2-carboxylic acid 4-carboxymethyl-cyclohexyl ester]
O=C(O)C[C@H]1CC[C@H](OC(=O)N2CCc3cc(NC(=O)Nc4c(F)cccc4F)ccc3C2)CC1 [Example 5, trans-6-[3-(2,6-difluoro-phenyl)-ureido]-3,4-dihydro-1H-isoquinoline-2-carboxylic acid 4-carboxymethyl-cyclohexyl ester]
Cc1cccc(NC(=O)Nc2ccc3c(c2)CCN(C(=O)O[C@H]2CC[C@H](CC(=O)O)CC2)C3)c1F [Example 6, trans-6-[3-(2-fluoro-3-methyl-phenyl)-ureido]-3,4-dihydro-1H-isoquinoline-2-carboxylic acid 4-carboxymethyl-cyclohexyl ester]
Cc1ccc(F)c(NC(=O)Nc2ccc3c(c2)CCN(C(=O)O[C@H]2CC[C@H](CC(=O)O)CC2)C3)c1 [Example 7, trans-6-[3-(2-fluoro-5-methyl-phenyl)-ureido]-3,4-dihydro-1H-isoquinoline-2-carboxylic acid 4-carboxymethyl-cyclohexyl ester]
Cc1ccc(NC(=O)Nc2ccc3c(c2)CCN(C(=O)O[C@H]2CC[C@H](CC(=O)O)CC2)C3)c(F)c1 [Example 8, trans-6-[3-(2-fluoro-4-methyl-phenyl)-ureido]-3,4-dihydro-1H-isoquinoline-2-carboxylic acid 4-carboxymethyl-cyclohexyl ester]
Cc1cccc(F)c1NC(=O)Nc1ccc2c(c1)CCN(C(=O)O[C@H]1CC[C@H](CC(=O)O)CC1)C2 [Example 9, trans-6-[3-(2-fluoro-6-methyl-phenyl)-ureido]-3,4-dihydro-1H-isoquinoline-2-carboxylic acid 4-carboxymethyl-cyclohexyl ester]
O=C(O)C[C@H]1CC[C@H](OC(=O)N2CCc3cc(NC(=O)Nc4cccc(Cl)c4F)ccc3C2)CC1 [Example 10, trans-6-[3-(3-chloro-2-fluoro-phenyl)-ureido]-3,4-dihydro-1H-isoquinoline-2-carboxylic acid 4-carboxymethyl-cyclohexyl ester]
O=C(O)C[C@H]1CC[C@H](OC(=O)N2CCc3cc(NC(=O)Nc4ccc(Cl)cc4F)ccc3C2)CC1 [Example 11, trans-6-[3-(4-chloro-2-fluoro-phenyl)-ureido]-3,4-dihydro-1H-isoquinoline-2-carboxylic acid 4-carboxymethyl-cyclohexyl ester]
O=C(O)C[C@H]1CC[C@H](OC(=O)N2CCc3cc(NC(=O)Nc4cc(Cl)ccc4F)ccc3C2)CC1 [Example 12, trans-6-[3-(5-chloro-2-fluoro-phenyl)-ureido]-3,4-dihydro-1H-isoquinoline-2-carboxylic acid 4-carboxymethyl-cyclohexyl ester]
O=C(O)C[C@H]1CC[C@H](OC(=O)N2CCc3cc(NC(=O)Nc4c(F)cccc4Cl)ccc3C2)CC1 [Example 13, trans-6-[3-(2-chloro-6-fluoro-phenyl)-ureido]-3,4-dihydro-1H-isoquinoline-2-carboxylic acid 4-carboxymethyl-cyclohexyl ester]
O=C(O)C[C@H]1CC[C@H](OC(=O)N2CCc3cc(NC(=O)Nc4ccc(F)c(F)c4F)ccc3C2)CC1 [Example 14, trans-6-[3-(2,3,4-trifluoro-phenyl)-ureido]-3,4-dihydro-1H-isoquinoline-2-carboxylic acid 4-carboxymethyl-cyclohexyl ester]
O=C(O)C[C@H]1CC[C@H](OC(=O)N2CCc3cc(NC(=O)Nc4c(F)cc(F)cc4F)ccc3C2)CC1 [Example 15, trans-6-[3-(2,4,6-trifluoro-phenyl)-ureido]-3,4-dihydro-1H-isoquinoline-2-carboxylic acid 4-carboxymethyl-cyclohexyl ester]
O=C(O)C[C@H]1CC[C@H](OC(=O)N2CCc3cc(NC(=O)Nc4ccc(C(F)(F)F)cc4F)ccc3C2)CC1 [Example 16, trans-6-[3-(2-fluoro-4-trifluoromethyl-phenyl)-ureido]-3,4-dihydro-1H-isoquinoline-2-carboxylic acid 4-carboxymethyl-cyclohexyl ester]
O=C(O)C[C@H]1CC[C@H](OC(=O)N2CCc3cc(NC(=O)Nc4ccccc4C(F)(F)F)ccc3C2)CC1 [Example 17, trans-6-[3-(2-trifluoromethyl-phenyl)-ureido]-3,4-dihydro-1H-isoquinoline-2-carboxylic acid 4-carboxymethyl-cyclohexyl ester]
O=C(O)C[C@H]1CC[C@H](OC(=O)N2CCc3cc(NC(=O)Nc4ccc(F)cc4C(F)(F)F)ccc3C2)CC1 [Example 18, trans-6-[3-(4-fluoro-2-trifluoromethyl-phenyl)-ureido]-3,4-dihydro-1H-isoquinoline-2-carboxylic acid 4-carboxymethyl-cyclohexyl ester]
COc1ccc(NC(=O)Nc2ccc3c(c2)CCN(C(=O)O[C@H]2CC[C@H](CC(=O)O)CC2)C3)c(C)c1 [Example 19, trans-6-[3-(4-methoxy-2-methyl-phenyl)-ureido]-3,4-dihydro-1H-isoquinoline-2-carboxylic acid 4-carboxymethyl-cyclohexyl ester]
Cc1ccc(NC(=O)Nc2ccc3c(c2)CCN(C(=O)O[C@H]2CC[C@H](CC(=O)O)CC2)C3)c(Cl)c1 [Example 20, trans-6-[3-(2-chloro-4-methyl-phenyl)-ureido]-3,4-dihydro-1H-isoquinoline-2-carboxylic acid 4-carboxymethyl-cyclohexyl ester]
